The experiment has as its system P388 leukemia ip, CD2F1 mice, survival T/C. The experiment is described as follows: NCI In Vivo Anticancer Drug Screen. Data for tumor model P388 Leukemia (intraperitoneal) in CD2F1 (CDF1) mice. The note with it: T/C endpoint: median survival time, higher T/C = longer survival.
The mark [1] stands for this setting: dose: 200.0 mg/kg/injection, schedule: Q01DX009 (ip), vehicle: saline.
Where [2] appears, read: dose: 100.0 mg/kg/injection, schedule: Q01DX009 (ip), vehicle: saline with Tween-80.
[3] abbreviates: dose: 400.0 mg/kg/injection, schedule: Q01DX009 (ip), vehicle: saline with Tween-80.
Setting [4] is: dose: 3.12 mg/kg/injection, schedule: Q01DX001 (ip), vehicle: Klucel (hydroxypropylcellulose) (HPC).
Setting [5] is: dose: 200.0 mg/kg/injection, schedule: Q01DX009 (ip), vehicle: saline with Tween-80.
Setting [6] is: dose: 240.0 mg/kg/injection, schedule: Q01DX005 (ip), vehicle: saline with Tween-80.

The list is a part of this screen's results and no random one: it gathers tests that were run many times, whatever their T/C, doses with no T/C, and many T/C values between a quarter and a half above the control. Further doses and runs are listed elsewhere. T/C: endpoint of the treated group in % of that of the vehicle group. Some doses have a count of surviving animals in place of a T/C: the source holds a T/C of zero for them, seemingly a mark for toxic or unscored doses. Some doses without a T/C left all or most animals alive at the check, yet need not have been tolerated: the source hardly ever lists a survival T/C far under the control, and the zero likely stands for such cases as well. Counts of survivors are from the toxicity check (mostly the fifth day) where no day follows; animals may have died later. Schedules are NCI's codes, taken here to give the interval after Q, in days (D) or hours (H), and the number of doses after X. Some doses were run more than once; the results are listed from low to high. Where survival is the endpoint, this PubChem deposit counts one and a half times the control or more as active, and values a quarter to a half above the control carry no call in these data; other NCI protocols may use other cut-offs. Some T/C values carry the count of animals alive at the toxicity check (mostly the fifth day); without a count, all were alive then.

Take `CC(C)c1oc(=O)cc2c1C(O)C1OC(=O)C3(C)C(O)C4OC4C2(C)C13` (stereo not drawn): the T/C (dose: 60.0 mg/kg/injection, schedule: Q01DX005 (ip), vehicle: Klucel (hydroxypropylcellulose) (HPC)) was 133 % of control [4 of 5 alive].

For the compound `NCC(O)c1cccc(C(F)(F)F)c1` (stereo not drawn), the survivor count under setting [1] is 3 of 6.

Turning to `Cl/C(=N\Nc1ccccc1)c1ccccc1`, the survivor count was 1 of 6 (dose: 25.0 mg/kg/injection, schedule: Q01DX009 (ip), vehicle: Klucel (hydroxypropylcellulose) (HPC)) and 2 of 6 (dose: 50.0 mg/kg/injection, schedule: Q01DX009 (ip), vehicle: Klucel (hydroxypropylcellulose) (HPC)).

Regarding `[Br][Sn]([Br])([S]c1ccccn1)[S]c1ccccn1`, the survivor count under setting [2] is reported as 6 of 6.

For the compound `Cn1c(=O)oc2cc(C(=O)CN3CCN(c4cccc(C(F)(F)F)c4)CC3)ccc21`, for the setting “dose: 240.0 mg/kg/injection, schedule: Q01DX005 (ip), vehicle: Klucel (hydroxypropylcellulose) (HPC)”, the survivor count is given as 4 of 6.

With `C=C1C(=O)C23C(O)CC4C(C)(C)C(OC(C)=O)C(OC(C)=O)CC4(C)C2CCC1C3O` (stereo not drawn), the survivor count (dose: 95.0 mg/kg/injection, schedule: Q01DX005 (ip), vehicle: Klucel (hydroxypropylcellulose) (HPC)) was 1 of 6.

On to `O=C1C(c2ccccc2)=C(c2ccc(Br)cc2)C2(c3ccc(Br)cc3)CC12c1ccccc1` (stereo not drawn), for which the survivor count (dose: 200.0 mg/kg/injection, schedule: Q01DX005 (ip), vehicle: Klucel + Tween-80) is reported as 6 of 6.

As to `CC(Cl)CN(CC(C)Cl)c1ccc2c(c1)Cc1ccccc1-2` (stereo not drawn), the T/C was 131 % of control (dose: 100.0 mg/kg/injection, schedule: Q01DX009 (ip), vehicle: Klucel (hydroxypropylcellulose) (HPC)); 129 and 146 % of control (dose: 200.0 mg/kg/injection, schedule: Q01DX009 (ip), vehicle: Klucel (hydroxypropylcellulose) (HPC)); 139 and 140 % of control [5 of 6 alive] (dose: 400.0 mg/kg/injection, schedule: Q01DX009 (ip), vehicle: Klucel (hydroxypropylcellulose) (HPC)).

Regarding `COc1cc2ccc(CC(N)=O)cc2cc1OC`, the survivor count under setting [3] is 5 of 6.

`CN(C)c1ccc(C(=C2C=CC(=[N+](C)C)C=C2)c2ccc(N(C)C)cc2)cc1` (tested in a mixture with another compound): the T/C (dose: 1.25 mg/kg/injection, schedule: Q01DX009 (ip), vehicle: saline with Tween-80) was 134 % of control and the T/C (dose: 2.5 mg/kg/injection, schedule: Q01DX009 (ip), vehicle: saline with Tween-80) was 138 % of control. Further, the survivor count was 0 of 6 and 6 of 6 (dose: 5.0 mg/kg/injection, schedule: Q01DX009 (ip), vehicle: saline with Tween-80); 1 of 6 (dose: 10.0 mg/kg/injection, schedule: Q01DX009 (ip), vehicle: saline with Tween-80); 0 of 6 (dose: 20.0 mg/kg/injection, schedule: Q01DX009 (ip), vehicle: saline with Tween-80); 0 of 6 (dose: 40.0 mg/kg/injection, schedule: Q01DX009 (ip), vehicle: saline with Tween-80); 0 of 6 (dose: 80.0 mg/kg/injection, schedule: Q01DX009 (ip), vehicle: saline with Tween-80).

`NC(Cc1cc([N+](=O)[O-])ccc1CN(CCCl)CCCl)C(=O)O` (stereo not drawn): the T/C was 137 % of control (dose: 0.5 mg/kg/injection, schedule: Q01DX009 (ip), vehicle: Klucel (hydroxypropylcellulose) (HPC)); 137 % of control (dose: 0.94 mg/kg/injection, schedule: Q04DX003 (ip), vehicle: Klucel (hydroxypropylcellulose) (HPC)); 128 % of control (dose: 1.0 mg/kg/injection, schedule: Q01DX009 (ip), vehicle: Klucel (hydroxypropylcellulose) (HPC)); 127 % of control (dose: 1.56 mg/kg/injection, schedule: Q01DX001 (ip), vehicle: Klucel (hydroxypropylcellulose) (HPC)); 130 % of control under setting [4]; 147 % of control (dose: 6.25 mg/kg/injection, schedule: Q01DX001 (ip), vehicle: Klucel (hydroxypropylcellulose) (HPC)). For the same compound, the survivor count under setting [4] is given as 6 of 6.

With `C[C@@H]1C[C@@H]2OC(=O)[C@]3(C)[C@H]2[C@@H](OC3(C)O)[C@]2(C)C(=O)C=C[C@@H]12` (stereo partly drawn), the T/C (dose: 34.0 mg/kg/injection, schedule: Q01DX009 (ip), vehicle: Klucel (hydroxypropylcellulose) (HPC)) is 128 and 135 % of control; the T/C (dose: 68.0 mg/kg/injection, schedule: Q01DX009 (ip), vehicle: Klucel (hydroxypropylcellulose) (HPC)) is 135 % of control.

For the compound `CC1C(=O)OC(C)(C)C1(C)C` (stereo not drawn), the survivor count is given as 0 of 6 under setting [2], 0 of 6 under setting [5] and 0 of 6 under setting [3].

As for `Cc1ccc(C)c(C(O)C2CC2)c1` (stereo not drawn), the survivor count (dose: 400.0 mg/kg/injection, schedule: Q04DX003 (ip), vehicle: saline with Tween-80) is listed as 1 of 6.

For `C=CCNCCN1CCN(CCCN2c3ccccc3Sc3ccc(C(F)(F)F)cc32)CC1`, the T/C (dose: 25.0 mg/kg/injection, schedule: Q04DX003 (ip), vehicle: saline) was 127 % of control. Also, the survivor count (dose: 100.0 mg/kg/injection, schedule: Q04DX003 (ip), vehicle: saline) is 2 of 6 and 4 of 6.

On to `CCOc1cc2c(cc1OC)c[n+](C)c1c3cc(OC)c(OC)cc3ccc21`, for which the T/C was 125 % of control [2 of 3 alive] (dose: 5.0 mg/kg/injection, schedule: Q01DX009 (ip), vehicle: water); 137 % of control (dose: 20.0 mg/kg/injection, schedule: Q01DX009 (ip), vehicle: water); 133 % of control (dose: 40.0 mg/kg/injection, schedule: Q01DX009 (ip), vehicle: water); 137 % of control (dose: 80.0 mg/kg/injection, schedule: Q01DX009 (ip), vehicle: water).

For `C=C1C(=O)OC2/C=C(\C)CC/C=C(/C=O)C(O)C(OC(=O)C(C)C)C12` (stereo not drawn), the T/C (dose: 10.0 mg/kg/injection, schedule: Q01DX009 (ip), vehicle: other) is 144 % of control.

With `COc1cc2c[n+](C)c3c(c2cc1OC)Cc1cc(OS(C)(=O)=O)c(OC)cc1-3`, the T/C was 128 % of control (dose: 25.0 mg/kg/injection, schedule: Q01DX005 (ip), vehicle: saline with Tween-80); 136 % of control (dose: 50.0 mg/kg/injection, schedule: Q01DX005 (ip), vehicle: saline with Tween-80); 137 % of control (dose: 100.0 mg/kg/injection, schedule: Q01DX005 (ip), vehicle: saline with Tween-80); 145 % of control [5 of 6 alive] (dose: 200.0 mg/kg/injection, schedule: Q01DX005 (ip), vehicle: saline with Tween-80).

In the case of `O=C1OC(C2OC(=O)C(=O)C2C(=O)c2ccc([N+](=O)[O-])cc2)C(C(=O)c2ccc([N+](=O)[O-])cc2)C1=O` (stereo not drawn), the survivor count under setting [6] was 6 of 6.

As to `O=C(NCCN1C(=O)C2C3CCC(O3)C2C1=O)Nc1ccc([N+](=O)[O-])cc1[N+](=O)[O-]` (stereo not drawn), the survivor count under setting [6] was 6 of 6.

In the case of `C[N+](C)(CCCCOc1c(Br)cc(Br)cc1Br)Cc1ccc([N+](=O)[O-])o1`, the survivor count (dose: 100.0 mg/kg/injection, schedule: Q04DX003 (ip), vehicle: Klucel (hydroxypropylcellulose) (HPC)) is on record as 0 of 6; the survivor count (dose: 200.0 mg/kg/injection, schedule: Q04DX003 (ip), vehicle: Klucel (hydroxypropylcellulose) (HPC)) is reported as 0 of 6; the survivor count (dose: 400.0 mg/kg/injection, schedule: Q04DX003 (ip), vehicle: Klucel (hydroxypropylcellulose) (HPC)) is 0 of 6.

As for `ClC1=CN(C2=NCCC2)CC1`, the survivor count is reported as 0 of 6 (dose: 50.0 mg/kg/injection, schedule: Q01DX009 (ip), vehicle: saline with Tween-80); 0 of 6 under setting [2]; 0 of 6 under setting [5].

`[CH3][Sn]([CH3])([Cl])[CH2]CC[CH2][Sn]([Cl])([Cl])[Cl]`: the survivor count is, setting by setting: (dose: 25.0 mg/kg/injection, schedule: Q01DX009 (ip), vehicle: saline) 3 of 6; (dose: 50.0 mg/kg/injection, schedule: Q01DX009 (ip), vehicle: saline) 0 of 6; (dose: 100.0 mg/kg/injection, schedule: Q01DX009 (ip), vehicle: saline) 0 of 6; under setting [1], 0 of 6.

As to `CC(=O)Nc1ccc(Cl)cc1C(Cl)c1ccccc1` (stereo not drawn), the survivor count (dose: 100.0 mg/kg/injection, schedule: Q01DX005 (ip), vehicle: Klucel (hydroxypropylcellulose) (HPC)) is 3 of 6 and the survivor count (dose: 200.0 mg/kg/injection, schedule: Q01DX005 (ip), vehicle: Klucel (hydroxypropylcellulose) (HPC)) is reported as 0 of 6.

With `CN(C)CCC(=O)c1ccccc1`, the survivor count under setting [1] is on record as 0 of 6.

The record behind these values is PubChem BioAssay AID330 (DTP/NCI, 2004).
